Measured values taken from the supplement of paper PMC12823440, “Inhibitors supercharge kinase turnover through native proteolytic circuits” (Nature, 2025).
The list shows a part of the results. The calls rarely recur for the same compound in another form.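 Kinases, fused to nanoluciferase, were expressed in K562 cells; luminescence was measured every 4 h from 2 to 18 h as percent of control (DMSO = 100%, positive control = 0%). A time point is decreased if signal falls significantly (2 sigma). Hits were called by the authors by a rule that is not shown; the count of time points alone does not decide it.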

By UniProt entry, the sequences of proteins in these tests, tags left out. Where a name states a change or a piece, a line headed by the entry shows the natural chain unless it says otherwise.
UniProt Q9Y616: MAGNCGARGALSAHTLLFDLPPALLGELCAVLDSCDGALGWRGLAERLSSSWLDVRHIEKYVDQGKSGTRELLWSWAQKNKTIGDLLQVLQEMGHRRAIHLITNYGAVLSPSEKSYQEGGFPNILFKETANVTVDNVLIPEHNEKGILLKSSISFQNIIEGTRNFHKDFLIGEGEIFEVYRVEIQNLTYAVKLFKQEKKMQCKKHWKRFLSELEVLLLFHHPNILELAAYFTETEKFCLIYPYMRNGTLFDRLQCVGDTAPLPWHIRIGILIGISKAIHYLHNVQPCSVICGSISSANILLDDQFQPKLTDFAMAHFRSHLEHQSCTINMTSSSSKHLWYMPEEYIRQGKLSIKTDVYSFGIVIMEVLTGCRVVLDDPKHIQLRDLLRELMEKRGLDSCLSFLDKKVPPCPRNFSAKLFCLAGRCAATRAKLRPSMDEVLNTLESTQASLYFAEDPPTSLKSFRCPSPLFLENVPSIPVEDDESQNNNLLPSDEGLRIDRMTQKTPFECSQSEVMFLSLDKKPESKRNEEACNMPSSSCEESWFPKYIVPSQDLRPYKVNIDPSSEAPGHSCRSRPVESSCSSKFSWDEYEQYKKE
UniProt P06239: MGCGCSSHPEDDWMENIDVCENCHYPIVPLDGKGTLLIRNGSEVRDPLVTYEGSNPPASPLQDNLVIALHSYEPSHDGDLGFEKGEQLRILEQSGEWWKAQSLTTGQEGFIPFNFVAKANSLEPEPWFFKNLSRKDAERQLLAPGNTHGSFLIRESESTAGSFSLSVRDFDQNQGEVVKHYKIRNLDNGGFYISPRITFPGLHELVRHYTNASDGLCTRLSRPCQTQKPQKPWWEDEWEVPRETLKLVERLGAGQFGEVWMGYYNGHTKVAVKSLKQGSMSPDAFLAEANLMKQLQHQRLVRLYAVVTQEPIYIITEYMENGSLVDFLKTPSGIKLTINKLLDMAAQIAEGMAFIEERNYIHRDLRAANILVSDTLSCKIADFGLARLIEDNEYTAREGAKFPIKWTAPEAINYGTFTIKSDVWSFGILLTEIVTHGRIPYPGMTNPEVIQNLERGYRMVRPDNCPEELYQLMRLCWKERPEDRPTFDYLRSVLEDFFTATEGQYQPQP
UniProt Q8IWU2: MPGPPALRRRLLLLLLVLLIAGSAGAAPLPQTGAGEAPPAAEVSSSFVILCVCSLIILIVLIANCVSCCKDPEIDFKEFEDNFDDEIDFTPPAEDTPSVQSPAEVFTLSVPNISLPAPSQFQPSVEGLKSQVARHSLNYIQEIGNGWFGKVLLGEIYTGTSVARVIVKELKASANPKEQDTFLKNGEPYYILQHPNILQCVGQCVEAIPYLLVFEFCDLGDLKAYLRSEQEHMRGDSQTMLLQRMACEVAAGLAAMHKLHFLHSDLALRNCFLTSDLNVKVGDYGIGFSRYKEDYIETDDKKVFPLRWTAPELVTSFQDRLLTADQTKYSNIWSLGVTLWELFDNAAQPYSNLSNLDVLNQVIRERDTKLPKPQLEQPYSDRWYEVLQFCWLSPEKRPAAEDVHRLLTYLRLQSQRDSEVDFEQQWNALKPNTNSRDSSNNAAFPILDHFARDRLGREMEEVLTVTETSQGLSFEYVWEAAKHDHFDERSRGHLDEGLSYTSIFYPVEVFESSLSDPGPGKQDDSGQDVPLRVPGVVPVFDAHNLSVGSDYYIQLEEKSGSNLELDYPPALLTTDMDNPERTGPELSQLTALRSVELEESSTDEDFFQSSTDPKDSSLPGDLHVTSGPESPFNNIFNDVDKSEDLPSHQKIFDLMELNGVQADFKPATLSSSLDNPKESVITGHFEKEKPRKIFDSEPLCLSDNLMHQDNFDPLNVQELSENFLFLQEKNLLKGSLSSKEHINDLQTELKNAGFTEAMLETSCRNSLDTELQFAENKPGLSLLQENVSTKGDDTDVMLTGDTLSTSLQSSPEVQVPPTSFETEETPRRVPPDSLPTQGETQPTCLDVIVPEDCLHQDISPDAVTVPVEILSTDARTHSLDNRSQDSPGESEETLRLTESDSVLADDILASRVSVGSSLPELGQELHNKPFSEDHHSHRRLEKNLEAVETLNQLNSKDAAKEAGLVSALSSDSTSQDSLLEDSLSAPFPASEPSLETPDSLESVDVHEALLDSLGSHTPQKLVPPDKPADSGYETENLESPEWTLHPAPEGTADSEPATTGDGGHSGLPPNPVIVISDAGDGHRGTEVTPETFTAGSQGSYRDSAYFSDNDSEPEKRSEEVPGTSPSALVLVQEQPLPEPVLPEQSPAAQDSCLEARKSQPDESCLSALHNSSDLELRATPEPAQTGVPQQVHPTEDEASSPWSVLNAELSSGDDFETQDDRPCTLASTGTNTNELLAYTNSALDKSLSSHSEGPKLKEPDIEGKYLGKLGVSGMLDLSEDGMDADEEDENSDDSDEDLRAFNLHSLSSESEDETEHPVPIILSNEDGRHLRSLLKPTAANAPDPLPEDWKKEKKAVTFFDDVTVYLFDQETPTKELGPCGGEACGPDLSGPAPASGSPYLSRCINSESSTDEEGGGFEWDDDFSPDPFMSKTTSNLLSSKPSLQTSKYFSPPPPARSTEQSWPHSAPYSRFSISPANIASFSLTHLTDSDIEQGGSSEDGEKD
UniProt P07948: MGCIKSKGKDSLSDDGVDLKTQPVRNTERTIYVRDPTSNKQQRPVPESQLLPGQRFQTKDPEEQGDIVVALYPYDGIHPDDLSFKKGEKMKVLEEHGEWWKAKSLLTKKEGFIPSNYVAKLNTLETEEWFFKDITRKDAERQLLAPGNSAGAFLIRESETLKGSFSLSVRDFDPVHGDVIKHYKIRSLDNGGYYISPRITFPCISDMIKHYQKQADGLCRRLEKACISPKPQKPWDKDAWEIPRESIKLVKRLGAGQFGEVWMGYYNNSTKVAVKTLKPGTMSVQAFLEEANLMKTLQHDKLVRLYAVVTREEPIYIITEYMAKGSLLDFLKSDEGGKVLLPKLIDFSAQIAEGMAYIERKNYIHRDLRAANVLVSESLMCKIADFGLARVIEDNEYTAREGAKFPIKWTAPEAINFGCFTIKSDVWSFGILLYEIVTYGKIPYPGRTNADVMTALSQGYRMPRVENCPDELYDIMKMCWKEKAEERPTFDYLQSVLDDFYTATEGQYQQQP
UniProt P28482, whole entry: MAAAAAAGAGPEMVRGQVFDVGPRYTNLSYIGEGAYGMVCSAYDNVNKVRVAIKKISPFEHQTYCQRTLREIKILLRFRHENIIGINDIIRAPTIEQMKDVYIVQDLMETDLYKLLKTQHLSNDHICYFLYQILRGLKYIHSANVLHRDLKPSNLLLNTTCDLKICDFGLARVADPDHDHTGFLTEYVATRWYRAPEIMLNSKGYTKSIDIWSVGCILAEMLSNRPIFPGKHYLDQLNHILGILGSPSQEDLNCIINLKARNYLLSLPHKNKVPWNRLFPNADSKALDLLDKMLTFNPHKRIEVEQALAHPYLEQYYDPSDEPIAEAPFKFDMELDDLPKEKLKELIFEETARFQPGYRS
UniProt Q9BUB5: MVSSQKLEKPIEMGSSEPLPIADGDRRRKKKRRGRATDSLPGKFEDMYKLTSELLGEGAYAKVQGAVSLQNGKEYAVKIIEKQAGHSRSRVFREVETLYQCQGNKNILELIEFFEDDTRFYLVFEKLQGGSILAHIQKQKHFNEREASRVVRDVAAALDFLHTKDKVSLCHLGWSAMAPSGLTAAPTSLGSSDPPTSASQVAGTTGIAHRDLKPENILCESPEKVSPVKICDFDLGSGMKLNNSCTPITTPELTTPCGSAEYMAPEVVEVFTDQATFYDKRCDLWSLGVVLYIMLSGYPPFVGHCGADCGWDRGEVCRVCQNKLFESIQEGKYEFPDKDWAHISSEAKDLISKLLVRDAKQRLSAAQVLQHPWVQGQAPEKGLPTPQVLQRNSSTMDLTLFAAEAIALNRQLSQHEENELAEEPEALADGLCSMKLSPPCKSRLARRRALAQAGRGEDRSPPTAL
UniProt Q16620, whole entry, looked up: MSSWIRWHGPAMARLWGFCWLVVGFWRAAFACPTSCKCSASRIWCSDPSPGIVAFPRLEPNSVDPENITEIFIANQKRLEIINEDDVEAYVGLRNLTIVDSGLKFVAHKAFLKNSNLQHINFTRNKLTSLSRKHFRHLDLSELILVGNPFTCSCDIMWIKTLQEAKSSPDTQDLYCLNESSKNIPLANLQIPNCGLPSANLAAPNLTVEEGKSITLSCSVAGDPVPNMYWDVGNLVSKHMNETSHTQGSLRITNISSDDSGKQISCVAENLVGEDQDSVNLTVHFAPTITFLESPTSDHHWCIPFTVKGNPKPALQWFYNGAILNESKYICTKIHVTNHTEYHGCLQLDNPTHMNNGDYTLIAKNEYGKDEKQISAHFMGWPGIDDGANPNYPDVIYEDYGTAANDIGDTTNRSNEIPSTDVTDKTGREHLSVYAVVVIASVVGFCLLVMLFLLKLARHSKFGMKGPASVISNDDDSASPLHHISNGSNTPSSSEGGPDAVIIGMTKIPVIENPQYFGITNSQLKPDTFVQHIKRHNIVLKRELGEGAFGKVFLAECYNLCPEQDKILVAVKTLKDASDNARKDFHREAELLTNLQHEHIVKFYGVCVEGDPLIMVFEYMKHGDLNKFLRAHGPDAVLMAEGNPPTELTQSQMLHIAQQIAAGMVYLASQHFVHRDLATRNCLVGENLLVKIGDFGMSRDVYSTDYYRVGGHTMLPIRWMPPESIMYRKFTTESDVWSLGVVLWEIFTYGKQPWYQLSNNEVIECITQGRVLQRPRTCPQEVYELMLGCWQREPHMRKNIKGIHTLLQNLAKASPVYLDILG
UniProt Q16288, whole entry, looked up: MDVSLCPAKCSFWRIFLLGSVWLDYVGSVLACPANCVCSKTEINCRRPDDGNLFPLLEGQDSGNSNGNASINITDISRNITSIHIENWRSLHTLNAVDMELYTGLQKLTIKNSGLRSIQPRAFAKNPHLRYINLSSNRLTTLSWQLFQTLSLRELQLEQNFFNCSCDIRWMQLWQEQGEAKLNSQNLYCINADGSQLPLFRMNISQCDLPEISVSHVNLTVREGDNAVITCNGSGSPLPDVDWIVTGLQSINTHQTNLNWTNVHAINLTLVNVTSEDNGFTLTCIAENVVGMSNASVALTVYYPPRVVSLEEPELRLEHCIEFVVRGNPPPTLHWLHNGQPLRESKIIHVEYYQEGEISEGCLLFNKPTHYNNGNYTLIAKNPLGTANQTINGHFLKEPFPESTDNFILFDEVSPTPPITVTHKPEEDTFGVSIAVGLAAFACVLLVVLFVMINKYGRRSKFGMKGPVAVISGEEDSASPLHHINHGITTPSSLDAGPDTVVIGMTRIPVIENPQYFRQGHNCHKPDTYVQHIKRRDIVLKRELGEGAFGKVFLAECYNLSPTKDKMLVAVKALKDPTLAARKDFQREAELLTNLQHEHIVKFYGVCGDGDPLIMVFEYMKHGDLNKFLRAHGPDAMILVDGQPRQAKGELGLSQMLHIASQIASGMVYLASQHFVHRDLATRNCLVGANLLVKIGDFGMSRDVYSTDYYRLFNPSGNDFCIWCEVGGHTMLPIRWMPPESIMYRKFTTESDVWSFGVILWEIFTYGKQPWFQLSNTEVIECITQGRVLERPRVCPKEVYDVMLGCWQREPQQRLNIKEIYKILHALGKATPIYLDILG
UniProt Q96KB5: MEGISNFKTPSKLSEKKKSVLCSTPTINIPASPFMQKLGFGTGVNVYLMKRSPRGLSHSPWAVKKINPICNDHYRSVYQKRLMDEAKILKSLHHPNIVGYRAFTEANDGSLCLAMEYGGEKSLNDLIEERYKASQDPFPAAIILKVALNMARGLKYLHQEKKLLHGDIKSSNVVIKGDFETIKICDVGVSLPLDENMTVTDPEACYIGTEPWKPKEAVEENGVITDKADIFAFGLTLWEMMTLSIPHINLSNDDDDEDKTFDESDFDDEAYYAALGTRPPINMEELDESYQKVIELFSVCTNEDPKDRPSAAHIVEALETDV
UniProt Q15118, whole entry, looked up: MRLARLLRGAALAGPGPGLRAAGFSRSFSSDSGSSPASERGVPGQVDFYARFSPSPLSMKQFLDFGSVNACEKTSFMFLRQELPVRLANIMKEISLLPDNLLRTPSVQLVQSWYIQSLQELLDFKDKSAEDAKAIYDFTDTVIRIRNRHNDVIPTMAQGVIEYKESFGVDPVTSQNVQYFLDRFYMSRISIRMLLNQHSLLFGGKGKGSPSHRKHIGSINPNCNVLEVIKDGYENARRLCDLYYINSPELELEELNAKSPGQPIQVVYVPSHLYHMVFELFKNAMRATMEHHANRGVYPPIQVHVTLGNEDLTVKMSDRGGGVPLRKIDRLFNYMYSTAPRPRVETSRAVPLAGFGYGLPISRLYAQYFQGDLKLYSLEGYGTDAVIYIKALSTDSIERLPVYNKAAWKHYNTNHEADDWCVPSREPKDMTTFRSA

Columns and labels:
Experiment in all cases: kinase-Nluc reporter destabilization hit call (1 = scored as downregulated) (binary); higher = compound decreases kinase abundance
Conditions in all cases: K562; 2-18 h
IRAK3 = IRAK3 (UniProt Q9Y616)
JAK1 = JAK1 (UniProt P23458)
LCK = LCK (UniProt P06239)
LIMK1 = LIMK1 (UniProt P53667)
LIMK2 = LIMK2 (UniProt P53671)
LMTK2 = LMTK2 (UniProt Q8IWU2)
LYN = LYN (UniProt P07948)
MAP2K1 = MAP2K1 (UniProt Q02750)
MAP2K2 = MAP2K2 (UniProt P36507)
MAP4K2 = MAP4K2 (UniProt Q12851)
MAPK1 = MAPK1 (UniProt P28482)
MAPK4 = MAPK4 (UniProt P31152)
MAPKAPK2 = MAPKAPK2 (UniProt P49137)
MKNK1 = MKNK1 (UniProt Q9BUB5)
NTRK2 = NTRK2 (UniProt Q16620)
NTRK3 = NTRK3 (UniProt Q16288)
PAK4 = PAK4 (UniProt O96013)
PBK = PBK (UniProt Q96KB5)
PDGFRB = PDGFRB (UniProt P09619)
PDK1 = PDK1 (UniProt Q15118)

Structure (SMILES) | kinase-Nluc reporter destabilization hit call (IRAK3) | kinase-Nluc reporter destabilization hit call (JAK1) | kinase-Nluc reporter destabilization hit call (LCK) | kinase-Nluc reporter destabilization hit call (LIMK1) | kinase-Nluc reporter destabilization hit call (LIMK2) | kinase-Nluc reporter destabilization hit call (LMTK2) | kinase-Nluc reporter destabilization hit call (LYN) | kinase-Nluc reporter destabilization hit call (MAP2K1) | kinase-Nluc reporter destabilization hit call (MAP2K2) | kinase-Nluc reporter destabilization hit call (MAP4K2) | kinase-Nluc reporter destabilization hit call (MAPK1) | kinase-Nluc reporter destabilization hit call (MAPK4) | kinase-Nluc reporter destabilization hit call (MAPKAPK2) | kinase-Nluc reporter destabilization hit call (MKNK1) | kinase-Nluc reporter destabilization hit call (NTRK2) | kinase-Nluc reporter destabilization hit call (NTRK3) | kinase-Nluc reporter destabilization hit call (PAK4) | kinase-Nluc reporter destabilization hit call (PBK) | kinase-Nluc reporter destabilization hit call (PDGFRB) | kinase-Nluc reporter destabilization hit call (PDK1)
O=c1ccc2cc(O)c(O)cc2o1 [Esculetin] (10 µM) | inactive: 0 | inactive: 0 | inactive: 0 | inactive: 0 | inactive: 0 | inactive: 0 | inactive: 0 | inactive: 0 | inactive: 0 | inactive: 0 | inactive: 0 | inactive: 0 | inactive: 0 | inactive: 0 | inactive: 0 | inactive: 0 | inactive: 0 | inactive: 0 | inactive: 0 | inactive: 0
CC(C)Cn1cc(C#N)c2cc(Oc3ccc(NC(=O)[C@@H]4CCCN4)cc3)ccc21 (10 µM) | inactive: 0 | inactive: 0 | inactive: 0 | inactive: 0 | inactive: 0 | inactive: 0 | inactive: 0 | inactive: 0 | inactive: 0 | inactive: 0 | inactive: 0 | inactive: 0 | inactive: 0 | inactive: 0 | inactive: 0 | inactive: 0 | inactive: 0 | inactive: 0 | inactive: 0 | inactive: 0
COc1ccc(-c2cnc3c(-c4cccc5ncccc45)cnn3c2)cc1 (10 µM) | inactive: 0 | inactive: 0 | inactive: 0 | inactive: 0 | inactive: 0 | inactive: 0 | inactive: 0 | inactive: 0 | inactive: 0 | inactive: 0 | inactive: 0 | inactive: 0 | inactive: 0 | inactive: 0 | inactive: 0 | inactive: 0 | inactive: 0 | inactive: 0 | inactive: 0 | inactive: 0
O=c1sn(-c2cccc3ccccc23)c(=O)n1Cc1ccccc1 [Tideglusib] (10 µM) | inactive: 0 | inactive: 0 | inactive: 0 | inactive: 0 | inactive: 0 | inactive: 0 | inactive: 0 | inactive: 0 | inactive: 0 | inactive: 0 | inactive: 0 | inactive: 0 | inactive: 0 | inactive: 0 | inactive: 0 | inactive: 0 | inactive: 0 | inactive: 0 | inactive: 0 | inactive: 0
O=c1cc(N2CCOCC2)oc2c1ccc1ccccc12 (2 µM) | inactive: 0 | inactive: 0 | inactive: 0 | inactive: 0 | inactive: 0 | inactive: 0 | inactive: 0 | inactive: 0 | inactive: 0 | inactive: 0 | inactive: 0 | inactive: 0 | inactive: 0 | inactive: 0 | inactive: 0 | inactive: 0 | inactive: 0 | inactive: 0 | inactive: 0 | inactive: 0
CNC(=O)c1nnc(NC(=O)C2CC2)cc1Nc1cccc(-c2ncn(C)n2)c1OC [Deucravacitinib] (10 µM) | inactive: 0 | inactive: 0 | inactive: 0 | inactive: 0 | inactive: 0 | inactive: 0 | inactive: 0 | inactive: 0 | inactive: 0 | inactive: 0 | inactive: 0 | inactive: 0 | inactive: 0 | inactive: 0 | inactive: 0 | inactive: 0 | inactive: 0 | inactive: 0 | inactive: 0 | inactive: 0
Cn1c(=O)c(Oc2ccc(F)cc2F)cc2cnc(NC(CCO)CCO)nc21 [Pamapimod] (10 µM) | inactive: 0 | inactive: 0 | inactive: 0 | inactive: 0 | inactive: 0 | inactive: 0 | inactive: 0 | inactive: 0 | inactive: 0 | inactive: 0 | inactive: 0 | inactive: 0 | inactive: 0 | inactive: 0 | inactive: 0 | inactive: 0 | inactive: 0 | inactive: 0 | inactive: 0 | inactive: 0
CNC(=O)c1c(C)oc2cc(Oc3ncnc4cc(OC)c(OC)cc34)ccc12 [Fruquintinib] (10 µM) | inactive: 0 | inactive: 0 | inactive: 0 | inactive: 0 | inactive: 0 | inactive: 0 | inactive: 0 | inactive: 0 | inactive: 0 | inactive: 0 | inactive: 0 | inactive: 0 | inactive: 0 | inactive: 0 | inactive: 0 | inactive: 0 | inactive: 0 | inactive: 0 | inactive: 0 | inactive: 0
CC(C)=CCC/C(C)=C/CC/C(C)=C/CSc1ccccc1C(=O)O [Salirasib] (10 µM) | inactive: 0 | inactive: 0 | inactive: 0 | inactive: 0 | inactive: 0 | inactive: 0 | inactive: 0 | inactive: 0 | inactive: 0 | inactive: 0 | inactive: 0 | inactive: 0 | inactive: 0 | inactive: 0 | inactive: 0 | inactive: 0 | inactive: 0 | inactive: 0 | inactive: 0 | inactive: 0
Cc1ccc(-n2c(-c3ccc(O)cc3O)n[nH]c2=O)cc1 (10 µM) | inactive: 0 | active: 1 | inactive: 0 | inactive: 0 | inactive: 0 | inactive: 0 | inactive: 0 | inactive: 0 | inactive: 0 | inactive: 0 | inactive: 0 | inactive: 0 | inactive: 0 | inactive: 0 | inactive: 0 | inactive: 0 | inactive: 0 | inactive: 0 | inactive: 0 | inactive: 0
CC(=O)Nc1nc(C)c(-c2ccc(Cl)c(S(=O)(=O)NCCO)c2)s1 (10 µM) | inactive: 0 | inactive: 0 | inactive: 0 | inactive: 0 | inactive: 0 | inactive: 0 | inactive: 0 | inactive: 0 | inactive: 0 | inactive: 0 | inactive: 0 | inactive: 0 | inactive: 0 | inactive: 0 | inactive: 0 | inactive: 0 | inactive: 0 | inactive: 0 | inactive: 0 | inactive: 0
C=CC(=O)N1CCN(c2nc(OC[C@@H]3CCCN3C)nc3c2CCN(c2cccc4cccc(C)c24)C3)C[C@@H]1CC#N (2.5 µM) | inactive: 0 | inactive: 0 | inactive: 0 | inactive: 0 | inactive: 0 | inactive: 0 | inactive: 0 | inactive: 0 | inactive: 0 | inactive: 0 | inactive: 0 | inactive: 0 | inactive: 0 | inactive: 0 | inactive: 0 | inactive: 0 | inactive: 0 | inactive: 0 | inactive: 0 | inactive: 0
COc1cccc2cc(-c3nc([C@H]4CC[C@H](C(=O)O)CC4)n4ncnc(N)c34)[nH]c12 (2.5 µM) | inactive: 0 | inactive: 0 | inactive: 0 | inactive: 0 | inactive: 0 | inactive: 0 | inactive: 0 | inactive: 0 | inactive: 0 | inactive: 0 | inactive: 0 | inactive: 0 | inactive: 0 | inactive: 0 | inactive: 0 | inactive: 0 | inactive: 0 | inactive: 0 | inactive: 0 | inactive: 0
C=CC(=O)Nc1cccc(Nc2nc(Nc3ccc(Oc4ccnc(C(=O)NC)c4)cc3)ncc2F)c1 (2.5 µM) | inactive: 0 | inactive: 0 | inactive: 0 | inactive: 0 | inactive: 0 | inactive: 0 | inactive: 0 | inactive: 0 | inactive: 0 | inactive: 0 | inactive: 0 | inactive: 0 | inactive: 0 | inactive: 0 | inactive: 0 | inactive: 0 | inactive: 0 | inactive: 0 | inactive: 0 | inactive: 0
COc1cc(Nc2nc3ccccc3nc2NS(=O)(=O)c2ccc(NC(=O)c3ccc(C)c(OC)c3)cc2)cc(OC)c1 (10 µM) | inactive: 0 | inactive: 0 | inactive: 0 | inactive: 0 | inactive: 0 | inactive: 0 | inactive: 0 | inactive: 0 | inactive: 0 | inactive: 0 | inactive: 0 | inactive: 0 | inactive: 0 | inactive: 0 | inactive: 0 | inactive: 0 | inactive: 0 | inactive: 0 | inactive: 0 | inactive: 0
Cc1cccc(-c2[nH]c(C(C)(C)C)nc2-c2ccc3c(c2)OCO3)n1 (2.5 µM) | inactive: 0 | inactive: 0 | inactive: 0 | inactive: 0 | inactive: 0 | inactive: 0 | inactive: 0 | inactive: 0 | inactive: 0 | inactive: 0 | inactive: 0 | inactive: 0 | inactive: 0 | inactive: 0 | inactive: 0 | inactive: 0 | inactive: 0 | inactive: 0 | inactive: 0 | inactive: 0
CCN1C(C)(C)CC(Oc2ccc(C(=O)Nc3ccc(NC(=O)Nc4cc(C(C)(C)C)on4)cc3)nc2)CC1(C)C (10 µM) | inactive: 0 | inactive: 0 | inactive: 0 | inactive: 0 | inactive: 0 | inactive: 0 | inactive: 0 | inactive: 0 | inactive: 0 | inactive: 0 | inactive: 0 | inactive: 0 | inactive: 0 | inactive: 0 | inactive: 0 | inactive: 0 | inactive: 0 | inactive: 0 | inactive: 0 | inactive: 0
O=C1NC(=O)C(c2ccccc2[N+](=O)[O-])=C1Nc1ccc(O)c(Cl)c1 (10 µM) | inactive: 0 | inactive: 0 | inactive: 0 | inactive: 0 | inactive: 0 | inactive: 0 | inactive: 0 | inactive: 0 | inactive: 0 | inactive: 0 | inactive: 0 | inactive: 0 | inactive: 0 | inactive: 0 | inactive: 0 | inactive: 0 | inactive: 0 | inactive: 0 | inactive: 0 | inactive: 0

Arranged by molar mass (smallest number first): part of the list above.
Structure (SMILES) | kinase-Nluc reporter destabilization hit call (IRAK3) | kinase-Nluc reporter destabilization hit call (JAK1) | kinase-Nluc reporter destabilization hit call (LCK) | kinase-Nluc reporter destabilization hit call (LIMK1) | kinase-Nluc reporter destabilization hit call (LIMK2) | kinase-Nluc reporter destabilization hit call (LMTK2) | kinase-Nluc reporter destabilization hit call (LYN) | kinase-Nluc reporter destabilization hit call (MAP2K1) | kinase-Nluc reporter destabilization hit call (MAP2K2) | kinase-Nluc reporter destabilization hit call (MAP4K2) | kinase-Nluc reporter destabilization hit call (MAPK1) | kinase-Nluc reporter destabilization hit call (MAPK4) | kinase-Nluc reporter destabilization hit call (MAPKAPK2) | kinase-Nluc reporter destabilization hit call (MKNK1) | kinase-Nluc reporter destabilization hit call (NTRK2) | kinase-Nluc reporter destabilization hit call (NTRK3) | kinase-Nluc reporter destabilization hit call (PAK4) | kinase-Nluc reporter destabilization hit call (PBK) | kinase-Nluc reporter destabilization hit call (PDGFRB) | kinase-Nluc reporter destabilization hit call (PDK1)
Cc1cccc(-c2[nH]c(C(C)(C)C)nc2-c2ccc3c(c2)OCO3)n1 (2.5 µM) | inactive: 0 | inactive: 0 | inactive: 0 | inactive: 0 | inactive: 0 | inactive: 0 | inactive: 0 | inactive: 0 | inactive: 0 | inactive: 0 | inactive: 0 | inactive: 0 | inactive: 0 | inactive: 0 | inactive: 0 | inactive: 0 | inactive: 0 | inactive: 0 | inactive: 0 | inactive: 0
O=C1NC(=O)C(c2ccccc2[N+](=O)[O-])=C1Nc1ccc(O)c(Cl)c1 (10 µM) | inactive: 0 | inactive: 0 | inactive: 0 | inactive: 0 | inactive: 0 | inactive: 0 | inactive: 0 | inactive: 0 | inactive: 0 | inactive: 0 | inactive: 0 | inactive: 0 | inactive: 0 | inactive: 0 | inactive: 0 | inactive: 0 | inactive: 0 | inactive: 0 | inactive: 0 | inactive: 0
C=CC(=O)N1CCN(c2nc(OC[C@@H]3CCCN3C)nc3c2CCN(c2cccc4cccc(C)c24)C3)C[C@@H]1CC#N (2.5 µM) | inactive: 0 | inactive: 0 | inactive: 0 | inactive: 0 | inactive: 0 | inactive: 0 | inactive: 0 | inactive: 0 | inactive: 0 | inactive: 0 | inactive: 0 | inactive: 0 | inactive: 0 | inactive: 0 | inactive: 0 | inactive: 0 | inactive: 0 | inactive: 0 | inactive: 0 | inactive: 0
